From patent publication US20220257603A1, “COMBINATION THERAPY FOR TREATING MTAP-DEFICIENT TUMORS” (Board of Regents, The University of Texas System, priority 2019, published 2022)
At least one compound was matched to its structure with a doubt left.

Assays:
[1] = tested on: mouse CD8 T cells; experiment: Cytokine production by activated mouse CD8 T cells; type: cell-based; details: mouse CD8 T cells activated with anti-CD3/anti-CD28, 72 h
Method: MTA was added into culture for 72 h.
MTA was added into culture for 72 h. […] Therefore, a triple combination therapy with pemetrexed +A2BR antagonists+anti-PD-L1 (or anti-PD1) can be ultra-effective for MTAP-deficient malignancies through five different mechanisms: (1) direct cytotoxicity (from pemetrexed); (2) decrease of MTA levels (from pemetrexed cytotoxicity) and thus alleviation of inhibition of IFN signaling and T cell function; (3) increases in levels of tumor PD-L1 expression (from pemetrexed); (4) T cell activation by mitigating MTA inhibition (A2BR antagonists); and (5) further T cell activation by inhibiting checkpoint molecule PD-L1 (anti-PD-L1 or anti-PD1).

[2] = tested on: naive lymphocytes; details: incubation with MTA; cited from earlier work

Compound: CSC[C@H]1O[C@@H](n2cnc3c(N)ncnc32)[C@H](O)[C@@H]1O [MTA, methylthioadenosine]
- production of INF-γ ([1]; FIGS. 5A & 7A): significantly inhibit
- production of TNF-α ([1]; FIGS. 5B & 7B): significantly inhibit
- proliferation and differentiation of naive lymphocytes [2]: halts
